Test results taken from paper PMC10774266.
Results are given in words; binding and its absence hold for the method and conditions named. Binding seen in cells or lysates may run through a third protein. Some entries that bind do so weakly or less than the wild type. Blank lines part the entries; values can stand above or below the substance they belong to.

By UniProt entry, the sequences of proteins in these tests, tags left out.
UniProt P09874: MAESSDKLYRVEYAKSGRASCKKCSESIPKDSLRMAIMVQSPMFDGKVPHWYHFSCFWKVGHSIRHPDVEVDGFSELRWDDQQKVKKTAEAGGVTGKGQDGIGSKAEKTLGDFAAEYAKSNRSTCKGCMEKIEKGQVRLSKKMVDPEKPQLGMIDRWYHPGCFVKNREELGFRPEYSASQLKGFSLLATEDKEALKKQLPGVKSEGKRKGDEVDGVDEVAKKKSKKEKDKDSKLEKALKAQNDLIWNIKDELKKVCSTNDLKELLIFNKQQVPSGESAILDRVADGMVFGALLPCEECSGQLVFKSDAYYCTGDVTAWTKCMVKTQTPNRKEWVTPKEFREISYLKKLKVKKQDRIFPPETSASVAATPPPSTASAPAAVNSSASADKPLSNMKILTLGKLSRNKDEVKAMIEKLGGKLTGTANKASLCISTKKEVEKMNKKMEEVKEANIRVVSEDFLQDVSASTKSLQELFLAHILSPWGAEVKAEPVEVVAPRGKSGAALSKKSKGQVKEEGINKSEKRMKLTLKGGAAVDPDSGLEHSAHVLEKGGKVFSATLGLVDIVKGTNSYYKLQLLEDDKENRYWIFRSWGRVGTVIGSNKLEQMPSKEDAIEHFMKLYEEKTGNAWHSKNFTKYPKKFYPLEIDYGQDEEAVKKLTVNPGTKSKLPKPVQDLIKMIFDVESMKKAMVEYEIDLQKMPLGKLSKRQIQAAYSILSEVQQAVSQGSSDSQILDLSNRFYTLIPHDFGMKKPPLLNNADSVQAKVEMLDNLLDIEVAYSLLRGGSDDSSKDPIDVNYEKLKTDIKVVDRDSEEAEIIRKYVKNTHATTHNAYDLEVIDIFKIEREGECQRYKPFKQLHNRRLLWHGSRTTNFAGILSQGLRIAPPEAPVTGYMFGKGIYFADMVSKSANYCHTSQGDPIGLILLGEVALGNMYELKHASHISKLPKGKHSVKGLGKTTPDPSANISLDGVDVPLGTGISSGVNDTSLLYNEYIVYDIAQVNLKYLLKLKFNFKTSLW
UniProt O75475: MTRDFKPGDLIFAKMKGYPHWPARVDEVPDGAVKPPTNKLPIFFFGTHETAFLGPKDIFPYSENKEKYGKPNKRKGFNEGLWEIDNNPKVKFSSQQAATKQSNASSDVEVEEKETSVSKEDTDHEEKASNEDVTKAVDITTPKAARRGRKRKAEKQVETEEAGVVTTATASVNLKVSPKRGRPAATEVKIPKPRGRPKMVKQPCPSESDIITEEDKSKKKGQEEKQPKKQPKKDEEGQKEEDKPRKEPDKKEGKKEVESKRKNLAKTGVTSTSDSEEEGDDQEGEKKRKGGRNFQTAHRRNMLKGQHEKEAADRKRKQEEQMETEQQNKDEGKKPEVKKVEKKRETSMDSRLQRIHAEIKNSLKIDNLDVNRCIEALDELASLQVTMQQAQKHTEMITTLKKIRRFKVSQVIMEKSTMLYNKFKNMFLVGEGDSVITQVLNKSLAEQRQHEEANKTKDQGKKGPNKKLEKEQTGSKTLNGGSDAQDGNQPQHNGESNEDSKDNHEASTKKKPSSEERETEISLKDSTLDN

Legend:
eGFP-PARP1 = eGFP-PARP1 (UniProt P09874); experiment: co-IP; eGFP-PARP1 captured on GFP-trap beads from cells expressing HA-PSIP1/p75 or HA-p52; blots with αGFP, αHA, γ-H2AX and PCNA antibodies
[1] = molecular target: PSIP1 (PC4 and SF2 interacting protein) (human (endogenous in RWPE-1)) (UniProt O75475); experiment: co-IP; anti-PSIP1 IP from nuclear extract in the presence of benzonase; Protein-A Dynabeads, overnight at 4 °C, washed in NP-40 lysis buffer (50 mM Tris-HCl pH 8.0, 150 mM KCl, 1% NP-40); IgG as negative control; western blot
[2] = molecular target: γ-H2AX (human (endogenous in HEK293T)) (UniProt P16104); experiment: co-IP; γ-H2AX IP from HEK293T extracts (control and PSIP1 KD; DMSO or camptothecin 10 μM, 2 h; with or without RNASEH1 overexpression); IgG as negative control; blot for PSIP1/p75

binding (eGFP-PARP1): binds
Substance: HA-PSIP1/p75 (from UniProt O75475 1-530)

binding [1]: binds
Substance: PARP1 (from UniProt P09874 1-1014)

binding [2]: binds
Substance: PSIP1/p75 (from UniProt O75475 1-530)
